Laboratory results: paper PMC11814294
No constants are given. Whether binding was seen depends on the method and setting. For some assays here: In cells and extracts the contact can be indirect. Some binding calls cover weakened binding; strength is not graded here. For some assays here: Where a sequence is shown, tags or fusion partners need not be part of it.

The chains behind the UniProt entries cited, without tags or fusion partners.
UniProt Q94BT6: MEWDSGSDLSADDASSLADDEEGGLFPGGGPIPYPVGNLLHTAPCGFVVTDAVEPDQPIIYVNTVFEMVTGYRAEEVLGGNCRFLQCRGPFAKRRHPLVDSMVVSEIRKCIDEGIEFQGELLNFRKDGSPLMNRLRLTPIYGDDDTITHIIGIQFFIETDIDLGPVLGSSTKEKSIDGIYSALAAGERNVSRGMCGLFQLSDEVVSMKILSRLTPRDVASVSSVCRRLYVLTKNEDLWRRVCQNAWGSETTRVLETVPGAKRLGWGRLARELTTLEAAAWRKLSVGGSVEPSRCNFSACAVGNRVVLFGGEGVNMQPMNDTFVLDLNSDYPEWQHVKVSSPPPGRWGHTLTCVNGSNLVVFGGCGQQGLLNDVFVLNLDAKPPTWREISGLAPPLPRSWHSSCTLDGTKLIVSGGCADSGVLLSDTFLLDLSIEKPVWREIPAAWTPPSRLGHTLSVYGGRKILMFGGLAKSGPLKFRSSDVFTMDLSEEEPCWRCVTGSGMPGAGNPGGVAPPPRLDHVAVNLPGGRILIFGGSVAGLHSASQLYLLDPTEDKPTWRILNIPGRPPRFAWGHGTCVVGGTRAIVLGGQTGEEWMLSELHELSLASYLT
UniProt Q9FTA2: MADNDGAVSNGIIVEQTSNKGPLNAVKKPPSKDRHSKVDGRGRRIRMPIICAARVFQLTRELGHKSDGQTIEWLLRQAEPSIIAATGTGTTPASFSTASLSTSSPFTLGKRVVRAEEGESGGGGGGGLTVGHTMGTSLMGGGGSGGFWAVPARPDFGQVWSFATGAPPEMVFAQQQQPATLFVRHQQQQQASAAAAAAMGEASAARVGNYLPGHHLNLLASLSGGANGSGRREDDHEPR

Columns and labels:
[1] = molecular target: T1, TIMING OF CAB EXPRESSION 1 (TOC1), Gal4 DNA-binding domain fusion (Arabidopsis thaliana) (UniProt Q9LKL2); experiment: yeast three-hybrid; pGADT7-CHE with BD-ZTL or BD-TOC1 in pBridge, which also expresses HaRxL10 or YFP (control) from PMet; Gold strain; selection on SD/-Leu-Trp-Met-His with 3-AT
T1 sequence: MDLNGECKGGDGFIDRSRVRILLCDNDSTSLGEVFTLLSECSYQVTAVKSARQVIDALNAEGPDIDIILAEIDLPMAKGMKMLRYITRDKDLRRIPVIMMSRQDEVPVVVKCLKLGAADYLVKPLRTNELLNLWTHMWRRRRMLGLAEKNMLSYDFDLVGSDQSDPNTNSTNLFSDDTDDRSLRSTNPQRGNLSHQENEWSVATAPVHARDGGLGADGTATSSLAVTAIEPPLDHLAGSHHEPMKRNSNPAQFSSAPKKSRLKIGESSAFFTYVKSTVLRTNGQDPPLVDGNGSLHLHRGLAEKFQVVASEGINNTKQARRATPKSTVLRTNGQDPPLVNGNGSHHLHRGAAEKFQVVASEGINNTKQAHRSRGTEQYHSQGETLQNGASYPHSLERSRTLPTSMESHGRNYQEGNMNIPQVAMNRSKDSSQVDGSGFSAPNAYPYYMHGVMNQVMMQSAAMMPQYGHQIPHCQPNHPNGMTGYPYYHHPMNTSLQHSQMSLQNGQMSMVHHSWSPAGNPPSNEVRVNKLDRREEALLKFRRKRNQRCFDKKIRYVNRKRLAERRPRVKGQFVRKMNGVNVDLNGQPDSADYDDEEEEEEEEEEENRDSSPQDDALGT

[2] = molecular target: ZTL, Gal4 DNA-binding domain fusion (Arabidopsis thaliana) (UniProt Q94BT6); experiment: as above
[3] = molecular target: T1, TIMING OF CAB EXPRESSION 1 (TOC1), Gal4 DNA-binding domain fusion (Arabidopsis thaliana); experiment: two-hybrid; single tests: both constructs (pGADT7-GW and pGBKT7-GW) transformed into AH109; selection on SD/-Leu-Trp-His-Ade
[4] = molecular target: ZTL, Gal4 DNA-binding domain fusion (Arabidopsis thaliana) (UniProt Q94BT6); experiment: as above
[5] = molecular target: cYFP-ZTL (Arabidopsis thaliana) (UniProt Q94BT6); experiment: split reporter; BiFC: cYFP and nYFP fusions transiently co-expressed in N. benthamiana leaves for two days, confocal microscopy

| Substance | binding [1] | binding [2] | binding [3] | binding [4] | binding [5] |
| --- | --- | --- | --- | --- | --- |
| CCA1 HIKING EXPEDITION (CHE), full length, Gal4 activation domain fusion (from UniProt Q9FTA2 1-239) | binds | binds | binds | binds | – |
| nYFP-CHE (from UniProt Q9FTA2 1-239) | – | – | – | – | binds |
